Values from PubChem BioAssay AID1259425 (University of Nebraska Medical Center, 2018).

Screen: 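Find knockdowns that reproduce the gene expression pattern seen when KSR1 is lost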 (primary screen)
Cells: HCT116 human colon cancer cells
Knock-down reagent: siRNA pool against human genes, 50 nM siRNA
Measured: 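After 50 nM siRNA pool, branched-DNA assay measures six marker transcripts per well, minus blank, normalised to the geometric mean of two housekeeping transcripts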
Reading the numbers: BNIP3L mRNA: higher = more BNIP3L transcript after knockdown
The deposit covers about 14,000 reagents; this is a random part of them. Further read-outs or replicates are left out here. No sequences are given here. Not stated in the record: the time to read-out.

With OR5F1 (olfactory receptor family 5 subfamily F member 1), what was measured?
BNIP3L mRNA, set 1: 0.192

What did the screen give for ASIP (agouti signaling protein)?
BNIP3L mRNA, set 1: 0.0521

With GATA4 (GATA binding protein 4), what was measured?
BNIP3L mRNA, set 1: 0.0798

How did the screen score FRAT2 (FRAT regulator of Wnt signaling pathway 2)?
BNIP3L mRNA, set 1: 0.0899

How did the screen score NFKBIA (NFKB inhibitor alpha)?
BNIP3L mRNA, set 1: 0.14

Reformatted: 2 of the entries above.
gene,"BNIP3L mRNA, set 1"
ASIP (agouti signaling protein),0.0521
GATA4 (GATA binding protein 4),0.0798

Further records follow.
How did the screen score GSE1 (Gse1 coiled-coil protein)?
BNIP3L mRNA, set 1: 0.0539

With ASMTL-AS1 (ASMTL antisense RNA 1), how do the results read?
BNIP3L mRNA, set 1: 0.111

What did the screen give for CUL4A (cullin 4A)?
BNIP3L mRNA, set 1: 0.0653

Which result is listed for OTC (ornithine transcarbamylase)?
BNIP3L mRNA, set 1: 0.0873

What did the screen give for GPM6B (glycoprotein M6B)?
BNIP3L mRNA, set 1: 0.0598

Which result is listed for NEK1 (NIMA related kinase 1)?
BNIP3L mRNA, set 1: 0.0401

For CDX4 (caudal type homeobox 4), what was measured?
BNIP3L mRNA, set 1: 0.163
